PubChem BioAssay AID493014 (National Center for Advancing Translational Sciences (NCATS), 2011)
The list shows a part of the results. The main result of the screen is listed elsewhere. These columns were measured beside it and carry no call. Most of these compounds were active or inconclusive in the main read-out, so they are no random draw. Potencies come from curve fits of mixed quality, noted in brackets.

Assay: qHTS Assay to Find Inhibitors of Chronic Active B-Cell Receptor Signaling
Details: ABC-DLBCL IkBa-CBG/CBR reporter, luminescence ratio (green luciferase fused to IkBa over red control in TMD8 lymphoma cells), 4 h
Outline: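 Concentration-response series (up to 46 uM) were applied to TMD8 dual-reporter cells for 4 h at 37C with doxycycline. Green/red ratio, after filter-overlap correction, defined %Activity; red signal alone was normalised to basal cells and zero luminescence.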

[1] = measured here: CBR red luminescence, cell number
[2] = measured here: IkBa-CBG green luminescence

| SMILES | AC50 [1] | AC50 [2] |
| --- | --- | --- |
| O=C(c1ccccc1)C(CCC(CN1CCOCC1)C(=O)c1ccccc1)CN1CCOCC1 (configuration not stated) | 3.98 µM [falling, full curve] | – |
| CCOC(=O)c1c(C)[nH]c(C(=O)N/N=C/c2cccc(OC)c2)c1C | 0.461 µM [falling, partial curve, poor fit] | – |
| COC(=O)c1c(-c2ccc(Br)cc2)noc1N | 29.1 µM [falling, single point] | – |
| O=c1[nH]c(SCc2ccccc2Cl)nc2[nH]ncc12 | 35.5 µM [falling, single point] | – |
| O=C(Nc1cccc(F)c1)Nc1ccc(Cl)cn1 | 1.41 µM [rising, partial curve] | – |
| CNC(=S)NNc1nncc2ccccc12 | 22.4 µM [falling, single point] | 22.4 µM [falling, single point] |
| O=C(NNC(=S)NC1CCCCC1)c1ccccc1O | 8.91 µM [falling, partial curve] | – |
| Cc1cccc(NC(=O)c2sc(Cl)nc2-c2ccccc2)c1 | 10.3 µM [falling, partial curve, poor fit] | – |
| CC(C)=NNC(=O)c1c(O)c2ccccc2[nH]c1=O | 3.98 µM [falling, full curve, poor fit] | – |
| O=C(NCC1CCCO1)c1cc(-c2ccc(F)cc2)no1 (configuration not stated) | 6.31 µM [falling, partial curve] | – |
| COC(=O)c1ccc(CSc2nc3cc(Cl)ccc3s2)o1 | 11.2 µM [rising, partial curve] | – |
| Brc1ccc2[nH]c3c(NCc4ccccn4)ncnc3c2c1 | 17.8 µM [falling, partial curve, poor fit] | – |
| CN(C)c1ccc(-c2nc3cc(N)ccc3o2)cc1 | 15.8 µM [falling, partial curve] | – |
| CCN(CC)C(=O)CSc1nc2ccccc2c(=O)n1OC(C)C | 5.17 µM [rising, partial curve, poor fit] | – |
| Cc1cc(S(=O)(=O)NC2CCCCC2)ccc1OCC(=O)NCc1cccnc1 | 0.146 µM [falling, full curve, poor fit] | – |
| CC1CCN(C(=O)CSc2ccc(-c3ccc4c(c3)OCCO4)nn2)CC1 | 12.6 µM [falling, partial curve, poor fit] | – |
| COc1ccc(NC(=O)Nc2cccc3c2O[C@H](CN(C)S(=O)(=O)c2cccs2)[C@@H](C)CN([C@H](C)CO)C3=O)cc1 | 0.058 µM [rising, full curve, poor fit] | – |
| COc1cc(/C=N/NC(=O)c2cc(C)oc2C)ccc1O | 14.1 µM [falling, partial curve, poor fit] | – |
| CC(NC(=O)C12CC3CC(CC(C3)C1)C2)c1ccc2c(c1)OCCO2 (configuration not stated) | 29.1 µM [rising, single point] | – |
| COc1ccccc1NC(=O)c1cc2ccc3cccnc3c2[nH]1 | 11.2 µM [falling, partial curve] | – |
| CC(=O)Oc1ccc(C(=O)Nc2nccs2)cc1 | 2.31 µM [falling, full curve, poor fit] | – |
| CCOC(=O)c1ccc(NS(C)(=O)=O)cc1 | 6.51 µM [rising, partial curve, poor fit] | – |

Single records (already shown). Values in the order: AC50 [1]	AC50 [2]
CC(=O)Oc1ccc(C(=O)Nc2nccs2)cc1 in the list: 2.31 µM [falling, full curve, poor fit]	–
CC1CCN(C(=O)CSc2ccc(-c3ccc4c(c3)OCCO4)nn2)CC1 in the list: 12.6 µM [falling, partial curve, poor fit]	–

(cont.)

| SMILES | AC50 [1] | AC50 [2] |
| --- | --- | --- |
| Cc1ccc(S(=O)(=O)N2C(=O)c3cccc4cccc2c34)cc1 | 20 µM [rising, partial curve, poor fit] | – |
| Cc1ccc(C(=O)NCCCC(=O)O)o1 | 0.411 µM [rising, full curve, poor fit] | – |
| O=C(c1ccco1)N(Cc1cccs1)C1CCS(=O)(=O)C1 (configuration not stated) | 3.66 µM [falling, partial curve, poor fit] | – |
| COc1ccc(C(=O)C(/C=N/O)=N/Nc2ccc(F)cc2)cc1 | 2 µM [rising, partial curve, poor fit] | – |
| Cc1cc2oc(=O)cc(-c3ccccc3)c2c(C)c1-c1ccc(OC(F)(F)F)cc1 | 29.1 µM [rising, single point] | 18.4 µM [falling, partial curve, poor fit] |
| Cc1ccc(SCc2cc(=O)[nH]c(/N=C(\N)Nc3ccccc3Sc3ccccc3)n2)cc1 | 6.51 µM [rising, partial curve, poor fit] | – |
| COC(=O)CCC(=O)Nc1ccc(NC(=O)CCC(=O)OC)cc1 | 23.1 µM [falling, single point] | – |
| Cc1n[nH]c(=S)n1-c1ccc(Cl)cc1 | 6.31 µM [rising, single point] | – |
| CC(=O)N(Cc1ccc(F)cc1)C1=C(NCCc2ccccc2)C(=O)c2ccccc2C1=O | 2.06 µM [falling, partial curve, poor fit] | – |
| COc1ccc(C)cc1NC(=O)CSc1nc(=O)n(Cc2ccncc2)c2c1CCC2 | 35.5 µM [falling, single point] | – |
| C=Cc1ccc(CN2C(=O)N(c3ccc(CC)cc3)S(=O)(=O)c3ccccc32)cc1 | 4.47 µM [rising, single point] | – |
| CCOC(=O)C1CCN(C(=O)CSc2ccc(Cl)cc2)CC1 | 13 µM [falling, partial curve] | – |
| Cc1[nH]c(SCC(=O)c2c(N)n(C)c(=O)n(C)c2=O)nc1Cc1ccccc1 | 1.16 µM [rising, full curve, poor fit] | – |
| Cc1ccccc1NC(=O)Nc1ccc(C(F)(F)F)cc1 | 8.91 µM [falling, partial curve] | – |
| CCCCc1c(C(=O)O)cc(OC)cc1C(=O)O | 2 µM [rising, partial curve] | – |
| Cc1ccc(C(=O)N/C(=C/c2cccs2)C(=O)N2CCCCC2)cc1 | 22.4 µM [falling, single point] | – |
| CCOC(=O)c1nnn(-c2nonc2N)c1CN1CCc2ccccc2C1 | 18.4 µM [falling, single point] | – |
| Cc1nnc(NC(=O)Cc2ccc(OCc3c(C)noc3C)cc2)s1 | 17.8 µM [rising, single point] | – |
| O=c1c2ccccc2c(C=NCCCN2CCOCC2)c(O)n1Cc1ccc2c(c1)OCO2 | 15.8 µM [falling, single point] | – |
| Cc1c(C(=O)Nc2ccc(S(=O)(=O)Nc3ncccn3)cc2)oc2ccc(F)cc12 | 8.91 µM [falling, partial curve, poor fit] | – |
| O=C(CSc1nc2ccccc2[nH]1)c1c[nH]c2ccccc12 | 10 µM [falling, partial curve, poor fit] | – |
| CCCC(=O)c1cn(CC(=O)OC)c2ccccc12 | 35.5 µM [rising, single point] | – |

In the list so far, 2 contain a CF3 group.

| SMILES | AC50 [1] | AC50 [2] |
| --- | --- | --- |
| Cc1cc2oc(=O)cc(-c3ccccc3)c2c(C)c1-c1ccc(OC(F)(F)F)cc1 | 29.1 µM [rising, single point] | 18.4 µM [falling, partial curve, poor fit] |
| Cc1ccccc1NC(=O)Nc1ccc(C(F)(F)F)cc1 | 8.91 µM [falling, partial curve] | – |

(next part)

| SMILES | AC50 [1] | AC50 [2] |
| --- | --- | --- |
| CCN(CC)c1ccc2cc(NC(=O)CCC(=O)O)c(=O)oc2c1 | 1.46 µM [falling, full curve] | – |
| CCN(CC)S(=O)(=O)c1cc(C(=O)OC)ccc1Cl | 20 µM [rising, single point] | – |
| Cc1ccc(-c2cc(C(F)(F)F)n3ncc(C(=O)N4CCN(C)CC4)c3n2)cc1 | 12.6 µM [rising, partial curve] | – |
| Cn1nc(C(F)(F)F)c(C(=O)Nc2ccc(F)cc2F)c1Sc1ccc(Cl)cc1 | 35.5 µM [falling, single point] | – |
| Cc1ccc(/C=N/NC(=O)c2cccc3ccccc23)o1 | 17.8 µM [falling, partial curve, poor fit] | – |
| Cc1ccc(Cn2nnc3c(=O)[nH]c(C4CCN(S(=O)(=O)c5ccc(S(=O)(=O)NC6CC6)cc5)CC4)nc32)cc1 | 1.26 µM [falling, full curve, poor fit] | – |
| Cc1cccc(C2c3[nH]c4ccccc4c3CCN2C(=O)Cc2n[nH]c(C)n2)n1 (configuration not stated) | 6.31 µM [rising, partial curve, poor fit] | – |
| CS(=O)(=O)NCCOc1ccc(S(=O)(=O)NCCOc2ccccc2)cc1 | 2.51 µM [rising, full curve, poor fit] | – |
| O=C(CSc1nnc(-c2cc3ccccc3cc2O)n1Cc1ccco1)c1ccc(F)cc1 | 31.6 µM [falling, single point] | – |
| COc1cccc(NC(=O)CSc2nc3ccccc3n2C)c1 | 35.5 µM [falling, single point] | – |
| Brc1ccc(-c2csc(-c3ccncc3)n2)cc1 | 1.84 µM [rising, full curve] | – |
| CCCS(=O)(=O)Nc1ccc(-c2ccc3nnc(C)n3n2)cc1 | 7.94 µM [rising, partial curve] | 17.8 µM [falling, partial curve, poor fit] |
| O=C(N/N=C\C=C\c1ccc([N+](=O)[O-])o1)c1cccs1 | 35.5 µM [falling, single point] | – |
| CC(=O)n1c(C=Nc2ccccc2)c(O)c2ccccc21 | 0.316 µM [falling, full curve, poor fit] | – |
| COc1cccc(-n2cc3c(c2-c2ccccc2)c(=O)n(C)c(=O)n3C)c1 | 35.5 µM [falling, single point] | – |
| COC(=O)c1cc(=O)n(C2CC2)c(=NC2CC2)s1 | 8.91 µM [falling, partial curve] | – |
| CCN(CC)CCNc1nc(-c2ccco2)c2c(c1C#N)CC(C)(C)OC2 | 1.26 µM [falling, full curve] | – |
| O=C(C1=NN[C@@H]2C(=O)N(c3cccc(F)c3)C(=O)[C@H]12)c1ccc2ccccc2n1 | 29.1 µM [falling, single point] | – |
| CSC1=NSC2=NC(=O)/C(=C\c3ccc(OC(=O)c4ccco4)cc3)C(=N)N12 | 1.12 µM [rising, partial curve, poor fit] | – |
| Cc1ccc(Nc2c(N)c(=O)oc3ccccc23)cc1 | 2.59 µM [rising, partial curve] | – |
